Source: patent US20180086836A1
These are yes or no findings as the source states them, for the method shown. Binding calls can cover weak binding; strength is not graded here.

Columns and labels:
[1] = target: cynomologus monkey CCR6 (cynomolgus monkey); test: flow cytometry on cynomolgus monkey PBMCs, 10 µg/mL
[2] = target: cynomologus monkey CCR6 (cynomolgus monkey); test: flow cytometry on cynomolgus monkey PBMCs, 10 µg/mL, anti-human IgG-PE
[3] = target: mmCCR6 block1 hsCCR6 (human/mouse hybrid); test: flow cytometry on transiently transfected CHO cells, 10 µg/ml, anti-human IgG-PE
[4] = target: mmCCR6 block1 hsCCR6 (human/mouse hybrid); test: flow cytometry on transiently transfected CHO cells

- binding [1]: binds
- binding [2]: binds
- binding [3]: binds
- binding [4]: binds
B1: chimeric 4H11 antibody (antibody, human IgG1, kappa, V domains shown)
VH: EVKLVESGGGLVQPGGSLKLSCATSGFSFSDYYMYWIRQTPEKRLEWVAYITNGGITYYPDTVKGRFTISRDNAKNTLYLQMSRLRSEDTAMYYCTSPLRGAWFAYWGQGTLVTVSS
VL: DVIMTQSPLSLPVSLGDQASISCRSSQSIVHSNGNTYLEWYLQKPGQSPKLLIYKVSNRFSGVPDRFSGSGSGTDFTLKISRVEAEDLGLYYCFQGSHVPLTFGAGTKLEIKR
